# Experimental data taken from the supplement of paper PMC11348887.
# Counter-ions that a name gives are not always drawn. The list shows a part of the results. Most values lie at the level of the controls, where differences are scatter.
# Tested on: hPSC-derived cortical neurons (WA09)
# Experiment: KCl-induced FOS+/EGR-1+ double-positive nuclei fraction z-score (KCl minus unstimulated); higher = stronger activity-induced IEG response
# Conditions: 5 µM; treatment: days 7-14 after plating, readout day 21
row,Structure (SMILES),KCl-induced FOS+/EGR-1+ double-positive nuclei fraction z-score
1,Cc1cc2c(cc1CC(=O)c1sccc1S(=O)(=O)Nc1onc(C)c1Cl)OCO2 [Sitaxentan sodium],-0.407
2,CCCCOc1ccc(CC(=O)NO)cc1 [Bufexamac],0.973
3,O=C(O)C(Cc1ccccc1[N+](=O)[O-])=NNc1nc(-c2ccc(Cl)c(Cl)c2)cs1 (mixture of isomers),-0.3
4,CCC(CC)CC1(C(=O)Nc2ccccc2SC(=O)C(C)C)CCCCC1,-1.08
5,CCN(c1cc(C#CCN2CCOCC2)cc(C(=O)NCc2c(C)cc(C)[nH]c2=O)c1C)[C@H]1CC[C@H](N(C)CCOC)CC1,0.71
6,Cc1ncc(-c2ccnc(Nc3ccc(S(C)(=O)=O)cc3)n2)n1C(C)C,-0.584
7,C#C[C@]1(O)CC[C@H]2[C@@H]3CCC4=CC(=O)CC[C@@H]4[C@H]3C(=C)C[C@@]21CC [Etonogestrel],-0.307
8,CNCCC(Oc1ccc(C(F)(F)F)cc1)c1ccccc1 (stereo not drawn) [Fluoxetine HCl],-1.48
9,CN(C(=O)CN(CCO)CC(=O)N(C)C(C)(C)Cc1ccccc1)C(C)(C)Cc1ccccc1 [Oxethazaine],-0.697
10,COc1ccc(C(=O)Nc2sc3c(c2C(N)=O)CCCC3)cc1OC,0.015
11,CC#CC(=O)N1CCC[C@H]1c1nc(-c2ccc(C(=O)Nc3ccccn3)cc2)c2c(N)nccn12 [Acalabrutinib (ACP-196)],-0.635
12,OC[C@H]1O[C@@H](Oc2cc(O)cc(/C=C/c3ccc(O)cc3)c2)[C@H](O)[C@@H](O)[C@@H]1O [Polydatin],0.0571
13,CCCc1cc(-c2nc(-c3ccc(C)cc3)cs2)ccn1 [Fatostatin HBr],-0.177

# Three entries from above, reformatted:
row | Structure (SMILES) | KCl-induced FOS+/EGR-1+ double-positive nuclei fraction z-score
2 | CCCCOc1ccc(CC(=O)NO)cc1 [Bufexamac] | 0.973
5 | CCN(c1cc(C#CCN2CCOCC2)cc(C(=O)NCc2c(C)cc(C)[nH]c2=O)c1C)[C@H]1CC[C@H](N(C)CCOC)CC1 | 0.71
7 | C#C[C@]1(O)CC[C@H]2[C@@H]3CCC4=CC(=O)CC[C@@H]4[C@H]3C(=C)C[C@@]21CC [Etonogestrel] | -0.307
